Results from publication PMC10907362.
Results are given in words; binding and its absence hold for the method and conditions named. In cells and extracts the contact can be indirect. A yes stands for co-enrichment or nearness to the bait. Other partners may have been found. Sequences can lack the tags named with a protein. Blank lines part the entries; values can stand above or below the binder they belong to.

Target: T1, Flag-USP40 (in HLMVECs) (human) (UniProt Q9NVE5)
T1 sequence: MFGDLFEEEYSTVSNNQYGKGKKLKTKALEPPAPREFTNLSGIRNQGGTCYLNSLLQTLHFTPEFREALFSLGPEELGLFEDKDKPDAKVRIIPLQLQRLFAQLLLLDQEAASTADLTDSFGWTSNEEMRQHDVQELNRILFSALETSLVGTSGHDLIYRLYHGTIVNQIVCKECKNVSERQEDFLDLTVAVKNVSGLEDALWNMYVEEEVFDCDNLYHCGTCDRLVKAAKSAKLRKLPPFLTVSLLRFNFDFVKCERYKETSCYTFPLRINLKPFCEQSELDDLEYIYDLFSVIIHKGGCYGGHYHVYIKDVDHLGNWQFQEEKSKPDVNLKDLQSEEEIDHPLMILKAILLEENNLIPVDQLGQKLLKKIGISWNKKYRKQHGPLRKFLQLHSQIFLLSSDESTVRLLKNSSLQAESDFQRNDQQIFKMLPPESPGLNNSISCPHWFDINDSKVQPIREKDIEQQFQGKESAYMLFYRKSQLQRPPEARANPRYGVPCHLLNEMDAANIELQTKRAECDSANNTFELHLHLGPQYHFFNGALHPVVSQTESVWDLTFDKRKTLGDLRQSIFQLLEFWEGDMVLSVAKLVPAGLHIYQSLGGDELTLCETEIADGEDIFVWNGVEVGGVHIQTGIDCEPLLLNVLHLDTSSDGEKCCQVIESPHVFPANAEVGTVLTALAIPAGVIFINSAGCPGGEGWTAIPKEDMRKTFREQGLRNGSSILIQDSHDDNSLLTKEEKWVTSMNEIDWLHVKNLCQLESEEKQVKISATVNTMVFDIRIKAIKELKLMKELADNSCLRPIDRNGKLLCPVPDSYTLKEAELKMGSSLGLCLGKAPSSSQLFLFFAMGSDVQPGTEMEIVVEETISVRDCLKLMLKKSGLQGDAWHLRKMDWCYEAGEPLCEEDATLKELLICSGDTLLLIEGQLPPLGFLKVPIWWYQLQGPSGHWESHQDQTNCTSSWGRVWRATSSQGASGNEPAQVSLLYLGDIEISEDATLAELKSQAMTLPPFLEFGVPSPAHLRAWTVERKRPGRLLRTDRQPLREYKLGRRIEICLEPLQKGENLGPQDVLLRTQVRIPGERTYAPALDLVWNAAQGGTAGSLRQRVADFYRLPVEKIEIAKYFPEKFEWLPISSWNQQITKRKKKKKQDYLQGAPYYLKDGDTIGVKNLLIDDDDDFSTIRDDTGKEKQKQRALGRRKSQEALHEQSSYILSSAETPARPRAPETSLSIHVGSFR
Assay: affinity purification with mass spectrometry; Flag-USP40 immunoprecipitated from transfected HLMVECs with FLAG-M2 affinity gel; eluted under reducing conditions, SDS-PAGE, Coomassie, bands excised, in-gel trypsin digestion, LC-MS

- binding: binds
B1: Serpin H1 (protein, UniProt P50454 19-418)
chain: AEVKKPAAAAAPGTAEKLSPKAATLAERSAGLAFSLYQAMAKDQAVENILVSPVVVASSLGLVSLGGKATTASQAKAVLSAEQLRDEEVHAGLGELLRSLSNSTARNVTWKLGSRLYGPSSVSFADDFVRSSKQHYNCEHSKINFRDKRSALQSINEWAAQTTDGKLPEVTKDVERTDGALLVNAMFFKPHWDEKFHHKMVDNRGFMVTRSYTVGVMMMHRTGLYNYYDDEKEKLQIVEMPLAHKLSSLIILMPHHVEPLERLEKLLTKEQLKIWMGKMQKKAVAISLPKGVVEVTHDLQKHLAGLGLTEAIDKNKADLSRMSGKKDLYLASVFHATAFELDTDGNPFDQDIYGREELRSPKLFYADHPFIFLVRDTQSGSLLFIGRLVRPKGDKMRDEL

- binding: binds
B2: SCY1-like protein 2 (protein, UniProt Q6P3W7 1-929)
chain: MESMLNKLKSTVTKVTADVTSAVMGNPVTREFDVGRHIASGGNGLAWKIFNGTKKSTKQEVAVFVFDKKLIDKYQKFEKDQIIDSLKRGVQQLTRLRHPRLLTVQHPLEESRDCLAFCTEPVFASLANVLGNWENLPSPISPDIKDYKLYDVETKYGLLQVSEGLSFLHSSVKMVHGNITPENIILNKSGAWKIMGFDFCVSSTNPSEQEPKFPCKEWDPNLPSLCLPNPEYLAPEYILSVSCETASDMYSLGTVMYAVFNKGKPIFEVNKQDIYKSFSRQLDQLSRLGSSSLTNIPEEVREHVKLLLNVTPTVRPDADQMTKIPFFDDVGAVTLQYFDTLFQRDNLQKSQFFKGLPKVLPKLPKRVIVQRILPCLTSEFVNPDMVPFVLPNVLLIAEECTKEEYVKLILPELGPVFKQQEPIQILLIFLQKMDLLLTKTPPDEIKNSVLPMVYRALEAPSIQIQELCLNIIPTFANLIDYPSMKNALIPRIKNACLQTSSLAVRVNSLVCLGKILEYLDKWFVLDDILPFLQQIPSKEPAVLMGILGIYKCTFTHKKLGITKEQLAGKVLPHLIPLSIENNLNLNQFNSFISVIKEMLNRLESEHKTKLEQLHIMQEQQKSLDIGNQMNVSEEMKVTNIGNQQIDKVFNNIGADLLTGSESENKEDGLQNKHKRASLTLEEKQKLAKEQEQAQKLKSQQPLKPQVHTPVATVKQTKDLTDTLMDNMSSLTSLSVSTPKSSASSTFTSVPSMGIGMMFSTPTDNTKRNLTNGLNANMGFQTSGFNMPVNTNQNFYSSPSTVGVTKMTLGTPPTLPNFNALSVPPAGAKQTQQRPTDMSALNNLFGPQKPKVSMNQLSQQKPNQWLNQFVPPQGSPTMGSSVMGTQMNVIGQSAFGMQGNPFFNPQNFAQPPTTMTNSSSASNDLKDLFG

- binding: binds
B3: Isoform 2 of Protein flightless-1 homolog (protein, UniProt Q13045-2 1-1214)
chain: MEATGVLPFVRGVDLSGNDFKGGYFPENVKAMTSLRWLKLNRTGLCYLPEELAALQKLEHLSVSHNNLTTLHGELSSLPSLRAIVARANSLKNSGVPDDIFKLDDLSVLDLSHNQLTECPRELENAKNMLVLNLSHNRQLPAMTALQTLHLRSTQRTQSNLPTSLEGLSNLADVDLSCNDLTRVPECLYTLPSLRRLNLSSNQITELSLCIDQWVHVETLNLSRNQLTSLPSAICKLSKLKKLYLNSNKLDFDGLPSGIGKLTNLEEFMAANNNLELVPESLCRCPKLRKLVLNKNHLVTLPEAIHFLTEIEVLDVRENPNLVMPPKPADRAAEWYNIDFSLQNQLRLAGASPATVAAAAAGSGPKDPMARKMRLRRRKDSAQDDQAKQVLKGMSDVAQEKNKKQEESADARAPSGKVRRWDQGLEKPRLDYSEFFTEDVGQLPGLTIWQIENFVPVLVEEAFHGKFYEADCYIVLKTFLDDSGSLNWEIYYWIGGEATLDKKACSAIHAVNLRNYLGAECRTVREEMGDESEEFLQVFDNDISYIEGGTASGFYTVEDTHYVTRMYRVYGKKNIKLEPVPLKGTSLDPRFVFLLDRGLDIYVWRGAQATLSSTTKARLFAEKINKNERKGKAEITLLVQGQELPEFWEALGGEPSEIKKHVPEDFWPPQPKLYKVGLGLGYLELPQINYKLSVEHKQRPKVELMPRMRLLQSLLDTRCVYILDCWSDVFIWLGRKSPRLVRAAALKLGQELCGMLHRPRHATVSRSLEGTEAQVFKAKFKNWDDVLTVDYTRNAEAVLQSPGLSGKVKRDAEKKDQMKADLTALFLPRQPPMSLAEAEQLMEEWNEDLDGMEGFVLEGKKFARLPEEEFGHFYTQDCYVFLCRYWVPVEYEEEEKKEDKEEKAEGKEGEEATAEAEEKQPEEDFQCIVYFWQGREASNMGWLTFTFSLQKKFESLFPGKLEVVRMTQQQENPKFLSHFKRKFIIHRGKRKAVQGAQQPSLYQIRTNGSALCTRCIQINTDSSLLNSEFCFILKVPFESEDNQGIVYAWVGRASDPDEAKLAEDILNTMFDTSYSKQVINEGEEPENFFWVGIGAQKPYDDDAEYMKHTRLFRCSNEKGYFAVTEKCSDFCQDDLADDDIMLLDNGQEVYMWVGTQTSQVEIKLSLKACQVYIQHMRSKEHERPRRLRLVRKGNEQHAFTRCFHAWSAFCKALA

- binding: binds
B4: Engulfment and cell motility protein 2 (protein, UniProt Q96JJ3 1-720)
chain: MPPPSDIVKVAIEWPGANAQLLEIDQKRPLASIIKEVCDGWSLPNPEYYTLRYADGPQLYITEQTRSDIKNGTILQLAISPSRAARQLMERTQSSNMETRLDAMKELAKLSADVTFATEFINMDGIIVLTRLVESGTKLLSHYSEMLAFTLTAFLELMDHGIVSWDMVSITFIKQIAGYVSQPMVDVSILQRSLAILESMVLNSQSLYQKIAEEITVGQLISHLQVSNQEIQTYAIALINALFLKAPEDKRQDMANAFAQKHLRSIILNHVIRGNRPIKTEMAHQLYVLQVLTFNLLEERMMTKMDPNDQAQRDIIFELRRIAFDAESDPSNAPGSGTEKRKAMYTKDYKMLGFTNHINPAMDFTQTPPGMLALDNMLYLAKVHQDTYIRIVLENSSREDKHECPFGRSAIELTKMLCEILQVGELPNEGRNDYHPMFFTHDRAFEELFGICIQLLNKTWKEMRATAEDFNKVMQVVREQITRALPSKPNSLDQFKSKLRSLSYSEILRLRQSERMSQDDFQSPPIVELREKIQPEILELIKQQRLNRLCEGSSFRKIGNRRRQERFWYCRLALNHKVLHYGDLDDNPQGEVTFESLQEKIPVADIKAIVTGKDCPHMKEKSALKQNKEVLELAFSILYDPDETLNFIAPNKYEYCIWIDGLSALLGKDMSSELTKSDLDTLLSMEMKLRLLDLENIQIPEAPPPIPKEPSSYDFVYHYG

- binding: binds
B5: Tropomodulin-3 (protein, UniProt Q9NYL9 1-352)
chain: MALPFRKDLEKYKDLDEDELLGNLSETELKQLETVLDDLDPENALLPAGFRQKNQTSKSTTGPFDREHLLSYLEKEALEHKDREDYVPYTGEKKGKIFIPKQKPVQTFTEEKVSLDPELEEALTSASDTELCDLAAILGMHNLITNTKFCNIMGSSNGVDQEHFSNVVKGEKILPVFDEPPNPTNVEESLKRTKENDAHLVEVNLNNIKNIPIPTLKDFAKALETNTHVKCFSLAATRSNDPVATAFAEMLKVNKTLKSLNVESNFITGVGILALIDALRDNETLAELKIDNQRQQLGTAVELEMAKMLEENTNILKFGYQFTQQGPRTRAANAITKNNDLVRKRRVEGDHQ

- binding: binds
B6: Ataxin-2-like protein (protein, UniProt Q8WWM7 1-1075)
chain: MLKPQPLQQPSQPQQPPPTQQAVARRPPGGTSPPNGGLPGPLATSAAPPGPPAAASPCLGPVAAAGSGLRRGAEGILAPQPPPPQQHQERPGAAAIGSARGQSTGKGPPQSPVFEGVYNNSRMLHFLTAVVGSTCDVKVKNGTTYEGIFKTLSSKFELAVDAVHRKASEPAGGPRREDIVDTMVFKPSDVMLVHFRNVDFNYATKDKFTDSAIAMNSKVNGEHKEKVLQRWEGGDSNSDDYDLESDMSNGWDPNEMFKFNEENYGVKTTYDSSLSSYTVPLEKDNSEEFRQRELRAAQLAREIESSPQYRLRIAMENDDGRTEEEKHSAVQRQGSGRESPSLASREGKYIPLPQRVREGPRGGVRCSSSRGGRPGLSSLPPRGPHHLDNSSPGPGSEARGINGGPSRMSPKAQRPLRGAKTLSSPSNRPSGETSVPPPPAVGRMYPPRSPKSAAPAPISASCPEPPIGSAVPTSSASIPVTSSVSDPGVGSISPASPKISLAPTDVKELSTKEPGRTLEPQELARIAGKVPGLQNEQKRFQLEELRKFGAQFKLQPSSSPENSLDPFPPRILKEEPKGKEKEVDGLLTSEPMGSPVSSKTESVSDKEDKPPLAPSGGTEGPEQPPPPCPSQTGSPPVGLIKGEDKDEGPVAEQVKKSTLNPNAKEFNPTKPLLSVNKSTSTPTSPGPRTHSTPSIPVLTAGQSGLYSPQYISYIPQIHMGPAVQAPQMYPYPVSNSVPGQQGKYRGAKGSLPPQRSDQHQPASAPPMMQAAAAAGPPLVAATPYSSYIPYNPQQFPGQPAMMQPMAHYPSQPVFAPMLQSNPRMLTSGSHPQAIVSSSTPQYPSAEQPTPQALYATVHQSYPHHATQLHAHQPQPATTPTGSQPQSQHAAPSPVQHQAGQAPHLGSGQPQQNLYHPGALTGTPPSLPPGPSAQSPQSSFPQPAAVYAIHHQQLPHGFTNMAHVTQAHVQTGITAAPPPHPGAPHPPQVMLLHPPQSHGGPPQGAVPQSGVPALSASTPSPYPYIGHPQGEQPGQAPGFPGGADDRIREFSLAGGIWHGRAEGLQVGQDARVLGGE
